Changes are numbered by the printed parent chain. These are yes or no findings as the source states them, for the method shown. Some results given as binding are weak or reduced against the parent protein; the word gives no strength.
B1: human anti-dengue virus antibody scFv m366 (scFv)
scFv: QLQLQESGGGLVQPGGSLRLSCAASGFTFSSYSMNWVRQAPGKRLEWVSSISGSSSYIYYADSVKGRFTISRDNAKNSLYLQMDSLRAEDTAVYYCARYAAGIWTFDIWGQGTTVTVSSGGGGSGGGASGGGGSSYELTQPPSVSVAPGKTASISCGGDNIGRKSVHWFQQKPGQAPVLVLYDDSDRPSGIPARFSGSNSGNTATLTISRVEAGDEADYYCQVWARSSDHPNWVFGGGTKLTVLG
notes: also called antibody m366
B2: human anti-dengue virus antibody scFv m366.6 (scFv)
scFv: B1 scFv with Y32H, V37I, G53S, K65R, A100M, T114M, R210G, H230L
notes: also called antibody m366.6
B3: human anti-dengue virus antibody scFv m360 (scFv)
scFv: QVTLKESGPTLVKRTQTLTLTCTFFGFSLSTSGMRVSWIRQPPGKALEWIARIDWDDDKFYSISLKSRLTISKDTSKNQVVLTMTNMDPVDTATYYCARTPYNWNDGPRGAFDIWGQGTMVTVSSEGGGSGGGASSGGGSQSVLTQPPSVSAAPGQKVTIPCSGSYSNIRNNYVSWYQQLPGTAPKLLIYDDNKRPSGIPDRFSGSKSGTLATLVITGLQSGDEADYYCGTWDSSLSGVVFGGGTKLTVLG
notes: also called antibody m360
B4: human anti-dengue virus antibody scFv m360.6 (scFv)
scFv: KVTLKESGPTLVKPRQTLTLTCTFSGFSLSTSGMRVSWVRQPPGKALEWIARIDWDDDKFYSTSLKTRLTISKDTFKNQVVLTMTNMDPVDTAMYYCVRTPYNWNDGPRGALDIWGQGTMVTVSSGGDRSDGGASGGGGSQSMLTQSPSVSAAPGQNVTISCSGDYPNIRNNYVSWYQQLPGAAPKLLIYDNNKRPSGIPDRFSGSKSGTSATLDITGLQTGDEADYYCGAWDSRLSAVVFGGGTKLTVLG
notes: also called antibody m360.6

Experiments:
[1] = biological target: DENV envelope domain III, serotype 2 (antigen of the Biacore assays) (Dengue virus serotype 2 (consensus sequence)) (UniProt P14337); experiment: SPR (Biacore)
[2] = biological target: DENV envelope domain III, serotype 2 (antigen of the Biacore assays) (Dengue virus serotype 2 (consensus sequence)) (UniProt P14337); experiment: summary of the examples (SPR)

Binder	binding [1]	binding [2]
B1	binds	binds
B2	binds	
B3	binds	
B4	binds	
